Taken from: PubChem BioAssay AID504808 (Drosophila RNAi Screening Center, 2011)
The screen tested about 21,000 reagents; this is a random part of those with a known target gene and a result. Of all reagents, 18 (0.084%) got an active call. 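Raw counts without plate normalisation, one of two replicates; the ratio scores behind the calls were not deposited.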 A plus sign joins genes that one reagent is predicted to hit. The record does not give: the amount of reagent, the time to read-out.

Test: 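Chromatin factors that keep E2F targets switched off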 (primary screen)
Cell system: Drosophila S2 cells
Reagent: long dsRNA against Drosophila genes
Detection: 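Dual luciferase plate measurements; E2F-specific signal taken as firefly over Renilla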
Reading the numbers: E2F firefly: higher = more E2F reporter activity; Renilla normaliser: higher = more normaliser reporter signal
Call rule: 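Called active if the normalised E2F reporter went up by over 50%; the cutoff is arbitrary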

gene,DRSC id,"E2F firefly, rep 1","Renilla normaliser, rep 1",activity call
Piezo,DRSC03092,94951,4044,inactive
CG12498,DRSC18635,1.24e5,5888,inactive
Esp,DRSC16664,1.10e5,5685,inactive
Ppcs,DRSC14127,72281,3834,inactive
mld,DRSC13681,72919,2515,inactive
mld,DRSC14622,61887,3828,inactive
Alg9,DRSC14407,65950,3271,inactive
CG6421,DRSC07420,1.35e5,4700,inactive
CG31661,DRSC00296,1.61e5,5536,inactive
CG8298,DRSC07138,1.03e5,4427,inactive
CG12106,DRSC17805,7485,852,inactive
CG30109,DRSC05675,1.75e5,7799,inactive
RagC-D,DRSC07239,3829,52,inactive
Saf6,DRSC00633,86080,3965,inactive
Nmdmc,DRSC16760,67688,3497,inactive
Cpr78E,DRSC11807,1.41e5,6766,inactive
nanos,DRSC17018,1.40e5,6691,inactive
MESR4,DRSC06901,1.64e5,5381,inactive
CG5697,DRSC15858,1.11e5,6303,inactive
Ttc30,DRSC01300,1.40e5,6448,inactive
Ttc30,DRSC02818,96712,3911,inactive
elgi,DRSC10242,78304,3687,inactive
l(3)L1231,DRSC16323,65594,3653,inactive
Ggamma30A,DRSC02715,1.46e5,5606,inactive
Ggamma30A,DRSC03331,1.48e5,4722,inactive
CG18011,DRSC06697,2749,220,inactive
CG18011,DRSC06706,1.59e5,5374,inactive
CG3916,DRSC15520,1.65e5,7721,inactive
Flad2,DRSC02531,1.07e5,4530,inactive
CG2162,DRSC08557,83815,3302,inactive
CG13284,DRSC02256,1.17e5,4841,inactive
CG13029,DRSC09909,1.58e5,7269,inactive
CG3808,DRSC10377,1.22e5,6165,inactive
SRPK,DRSC07090,74827,3648,inactive
CG5773,DRSC06955,1.49e5,4611,inactive
CG31806,DRSC02787,1.05e5,4614,inactive
Sos,DRSC03439,1.01e5,4037,inactive
rgn,DRSC11609,88494,3994,inactive
CG15286,DRSC01907,86175,4230,inactive
CG18404,DRSC15323,1.40e5,6741,inactive
Ugt303B2,DRSC14198,93579,5234,inactive
CG33155 + mRpL53,DRSC05461,1.38e5,4622,inactive
CG15528,DRSC15065,1.34e5,6281,inactive
Chd3,DRSC11114,1.23e5,5290,inactive
CG13481,DRSC10023,1.88e5,8455,inactive
CG33177,DRSC19949,1.40e5,6271,inactive
htt,DRSC16970,1.23e5,6467,inactive
C901,DRSC19351,1.26e5,5765,inactive
Ilp5,DRSC08998,1.41e5,4940,inactive
alpha-Est4aPsi,DRSC12473,68012,4322,inactive
CG17658,DRSC04292,1.07e5,4287,inactive
Cpr49Ae,DRSC07201,2588,217,inactive
Taf6,DRSC11299,73390,3742,inactive
CG11134,DRSC19384,46646,3475,inactive
CG11449,DRSC11662,1.54e5,7744,inactive
CG14174,DRSC10175,1.29e5,6818,inactive
CG6230,DRSC01989,85320,4196,inactive
scaf,DRSC04849,71084,3062,inactive
bmm,DRSC10502,83314,4341,inactive
CG32532,DRSC19556,1.35e5,6963,inactive
CG32532,DRSC19557,1.33e5,6419,inactive
CG32532,DRSC19558,1.33e5,6948,inactive
Naprt,DRSC00630,99224,4112,inactive
CG1494,DRSC20509,1.35e5,7088,inactive
rudhira,DRSC19821,6015,804,inactive
CG15254,DRSC01870,1.10e5,4448,inactive
aqrs,DRSC14724,1.31e5,7232,inactive
CG6138,DRSC02933,1.65e5,5442,inactive
Rab1,DRSC16808,1.15e5,7933,inactive
Dop2R,DRSC20683,1.38e5,6281,inactive
Dop2R,DRSC20686,1.20e5,7449,inactive
CG9861,DRSC04576,88869,4182,inactive
MED31,DRSC12142,72318,3422,inactive
CG31782 (retired record),DRSC01554,1.57e5,5813,inactive
CG31782 (retired record),DRSC01556,1.45e5,5470,inactive
Mgtor,DRSC05958,3323,185,inactive
Mfap1,DRSC08154,52323,3685,inactive
CG42703,DRSC03973,1.21e5,4839,inactive
brn,DRSC18746,1532,764,inactive
CG11267,DRSC09833,1.37e5,6974,inactive
Secp43,DRSC00454,1.38e5,4586,inactive
G9a,DRSC18619,1.22e5,6035,inactive
CR30029,DRSC06724,98408,4619,inactive
Set8,DRSC15473,77786,3368,inactive

Records listed so far whose gene name starts with E or e (2):
gene,DRSC id,"E2F firefly, rep 1","Renilla normaliser, rep 1",activity call
Esp,DRSC16664,1.10e5,5685,inactive
elgi,DRSC10242,78304,3687,inactive
